From ChEMBL document CHEMBL3885861, “Open TG-GATES”

Tests used:
Rattus norvegicus [1] = species: Rattus norvegicus; experiment: Open TG-GATES - Regimen: Daily Repeat; format: toxicity, organism-based, Sprague-Dawley; parameters: regimen Daily Repeat, gender Male, age 6 weeks; conditions: in vivo, po, route gavage
Rattus norvegicus [2] = species: Rattus norvegicus; experiment: Open TG-GATES - Regimen: Single; format: toxicity, organism-based, Sprague-Dawley; parameters: regimen Single, gender Male, age 6 weeks; conditions: in vivo, po, route gavage
[3] = 300 mg/kg, […], tissue Blood, dose level Middle, time 28 day
[4] = 300 mg/kg, 6 h, tissue Blood, dose level Middle
[5] = 300 mg/kg, 24 h, tissue Blood, dose level Middle

`O=C(O)c1cn(C2CC2)c2cc(N3CCNCC3)c(F)cc2c1=O` [CIPROFLOXACIN] showed an LIVER (Rattus norvegicus [1]; 0 mg/kg, […], tissue Liver, dose level Control, time 28 day) of 14.6 g, a Ca (Rattus norvegicus [1]; 0 mg/kg, […], tissue Plasma, dose level Control, time 14 day) of 11.1 mg/dL and a Ca (Rattus norvegicus [1]; 100 mg/kg, 72 h, tissue Plasma, dose level Low, time 3 day) of 11.1 mg/dL. For the same molecule, the MCHC (Rattus norvegicus [1]; 300 mg/kg, 72 h, tissue Blood, dose level Middle, time 3 day) was 33.7%, the Ca (Rattus norvegicus [1]; 300 mg/kg, 72 h, tissue Plasma, dose level Middle, time 3 day) was 11.1 mg/dL and the Hb (Rattus norvegicus [1]; [3]) was 14.6 g/dL. For the same molecule, the PT (Rattus norvegicus [1]; [3]) was 11.1 s, the Ca (Rattus norvegicus [1]; 300 mg/kg, […], tissue Plasma, dose level Middle, time 28 day) was 11.1 mg/dL and the PT (Rattus norvegicus [1]; 1000 mg/kg, […], tissue Blood, dose level High, time 28 day) was 11.1 s. It also gave an ALT (Rattus norvegicus [1]; 1000 mg/kg, […], tissue Plasma, dose level High, time 7 day) of 41.2 IU/L, a Ca (Rattus norvegicus [1]; 1000 mg/kg, […], tissue Plasma, dose level High, time 14 day) of 11.1 mg/dL and a Neu (Rattus norvegicus [2]; 0 mg/kg, 3 h, tissue Blood, dose level Control) of 14.6%. It also gave a Ca (Rattus norvegicus [2]; 0 mg/kg, 6 h, tissue Plasma, dose level Control) of 11.1 mg/dL, a Ht (Rattus norvegicus [2]; 100 mg/kg, 9 h, tissue Blood, dose level Low) of 41.2% and a TG (Rattus norvegicus [2]; 100 mg/kg, 24 h, tissue Plasma, dose level Low) of 50.8 mg/dL. For the same molecule, the Ht (Rattus norvegicus [2]; [4]) was 38.9%, the Lym (Rattus norvegicus [2]; [4]) was 72.6% and the Ca (Rattus norvegicus [2]; 300 mg/kg, 9 h, tissue Plasma, dose level Middle) was 11.1 mg/dL. For the same molecule, the Ht (Rattus norvegicus [2]; [5]) was 38.9%, the Neu (Rattus norvegicus [2]; [5]) was 14.6% and the Ht (Rattus norvegicus [2]; 1000 mg/kg, 3 h, tissue Blood, dose level High) was 38.9%. The Ca (Rattus norvegicus [2]; 1000 mg/kg, 3 h, tissue Plasma, dose level High) was 11.1 mg/dL.
